The results in this text go back to PubChem BioAssay AID588496 (NMMLSC, 2011).

The other results are listed elsewhere or left out. The main result of the screen is listed elsewhere. These columns were measured beside it and carry no call.

This assay can be described thus: bead-bound aptamer signal quenching artefacts – biochemical, powder set 1, flow cytometry, artefact control for GRK2 aptamer binding project, dose response (AID 588496). The settings on record: Bead-bound FAM RNA aptamer fluorescence quenching, fluorescence change max-min concentration, stronger effect = higher value.
For the molecule `CCOc1ccc(CCNC(=O)CCS(=O)(=O)c2ccc(Br)cc2)cc1OCC`, the MCF span stood at 4.6.

As for `C#CCSc1nc2sc3c(c2c(=O)n1C)CCC3`, the MCF span was 1.2.

Molecule `CCc1ccccc1NC(=O)CCS(=O)(=O)c1ccc(Br)cc1` showed an MCF span of -0.6.

Consider `Cc1cc2ccccc2n1CCNC(=O)C(C)Oc1ccccc1` (stereo unspecified), for which the MCF span was -2.5.

Turning to `COc1ccc(CCNC(=O)CCS(=O)(=O)c2ccc(Br)cc2)cc1OC`, the MCF span is -1.8.

`COC(=O)c1ccccc1NC(=O)CCS(=O)(=O)c1ccc(Br)s1` yielded an MCF span of -0.5.

`O=C(CCS(=O)(=O)c1ccc(Br)cc1)Nc1ccc(Br)cc1F`: the MCF span was found to be 4.2.

In turn, `O=C(CSc1nc2ccccc2c(=O)n1-c1ccccc1)NC(=O)CN1CCCC1=O` gave an MCF span of -1.6.

With `Cc1ccccc1NC(=O)CCS(=O)(=O)c1ccc(Br)s1`, the MCF span was 1.3.

In turn, `O=C(CCS(=O)(=O)c1ccc(Br)cc1)NCc1cccs1` yielded an MCF span of 0.

`Cc1cc(=O)[nH]c(SCC(=O)NCc2ccco2)n1` had an MCF span of 0.5.

`CCOc1ccccc1NC(=O)CCS(=O)(=O)c1ccc(Br)cc1` yielded an MCF span of 1.4.

The molecule `NS(=O)(=O)c1ccc(CCNC(=O)CCS(=O)(=O)c2ccc(Br)cc2)cc1` showed an MCF span of -4.2.

Molecule `CC(=O)N1CCN(Cc2nc3cc(Cl)ccc3c(=O)[nH]2)CC1` returned an MCF span of 0.9.

For the molecule `CC(CS(=O)(=O)c1ccc2c(c1)NC(=O)CS2)C(=O)NCc1ccccc1Cl` (stereo unspecified), the MCF span was determined as 0.5.

Turning to `Cc1cc2ccccc2n1CCNC(=O)c1cccs1`, the MCF span worked out at 0.9.

Molecule `Cc1ccccc1NC(=O)CCS(=O)(=O)c1ccc(Br)cc1` gave an MCF span of 7.3.

Consider `COc1ccc([N+](=O)[O-])cc1NC(=O)CCS(=O)(=O)c1ccc(Br)cc1`, for which the MCF span is -1.8.

As for `COc1ccc(CNC(=O)CCS(=O)(=O)c2ccc(Br)cc2)cc1`, the MCF span was determined as 4.7.

With `Cc1cccc(N2CCN(C(=O)CCS(=O)(=O)c3ccc(Br)cc3)CC2C)c1` (stereo unspecified), the MCF span is -1.8.

Turning to `COC(=O)c1ccc(NC(=O)CCS(=O)(=O)c2ccc(Br)cc2)cc1`, the MCF span was -2.5.

In turn, `O=C(O)C1CC(=O)N(c2ccc3c(c2)OCCO3)C1` (stereo unspecified) yielded an MCF span of -0.4.

In the case of `O=C(CCS(=O)(=O)c1ccc(Br)s1)Nc1ccccc1Br`, the MCF span amounted to 1.2.

Regarding `CCN(CC)c1ccc(NC(=O)CCS(=O)(=O)c2ccc(Br)cc2)c(C)c1`, the MCF span was -2.7.

`Cc1ccc(CCNC(=O)CCS(=O)(=O)c2ccc(Br)cc2)cc1` yielded an MCF span of 10.6.

Consider `O=C(CCS(=O)(=O)c1ccc(Br)cc1)Nc1cc(F)ccc1F`, for which the MCF span is -2.

With `CCOc1ccc(NC(=O)CCS(=O)(=O)c2ccc(Br)cc2)cc1`, the MCF span came out at 3.1.

`O=C(CN1CCc2ccccc21)NC(=O)NCc1ccccc1` came in with an MCF span of -1.4.

As to `O=C(O)Cc1ccc(-n2cccc2)cc1`, the MCF span was 0.6.

`COc1ccc(NC(=O)CCS(=O)(=O)c2ccc(Br)s2)cc1` gave an MCF span of -1.5.

With `Cc1cccc(CCNC(=O)CCS(=O)(=O)c2ccc(Br)cc2)c1`, the MCF span was -1.8.
